# Laboratory results reported in the supplement of paper PMC12067093, “Discovery and optimisation of a covalent ligand for TRIM25 and its application to targeted protein ubiquitination” (Chemical Science, 2025).
# By UniProt entry, the sequences of proteins in these tests, tags left out. Where a name states a change or a piece, a line headed by the entry shows the natural chain unless it says otherwise.
# UniProt Q9H6F5: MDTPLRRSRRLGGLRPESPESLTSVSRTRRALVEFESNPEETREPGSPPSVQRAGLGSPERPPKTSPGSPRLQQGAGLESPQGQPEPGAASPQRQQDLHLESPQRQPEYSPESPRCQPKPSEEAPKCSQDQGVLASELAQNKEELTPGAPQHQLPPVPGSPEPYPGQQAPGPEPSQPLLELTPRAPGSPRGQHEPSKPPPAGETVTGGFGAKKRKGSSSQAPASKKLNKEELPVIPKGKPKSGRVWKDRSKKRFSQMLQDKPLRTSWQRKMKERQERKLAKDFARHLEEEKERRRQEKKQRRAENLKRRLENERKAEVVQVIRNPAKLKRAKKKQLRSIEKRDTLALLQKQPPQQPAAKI
# UniProt P29466: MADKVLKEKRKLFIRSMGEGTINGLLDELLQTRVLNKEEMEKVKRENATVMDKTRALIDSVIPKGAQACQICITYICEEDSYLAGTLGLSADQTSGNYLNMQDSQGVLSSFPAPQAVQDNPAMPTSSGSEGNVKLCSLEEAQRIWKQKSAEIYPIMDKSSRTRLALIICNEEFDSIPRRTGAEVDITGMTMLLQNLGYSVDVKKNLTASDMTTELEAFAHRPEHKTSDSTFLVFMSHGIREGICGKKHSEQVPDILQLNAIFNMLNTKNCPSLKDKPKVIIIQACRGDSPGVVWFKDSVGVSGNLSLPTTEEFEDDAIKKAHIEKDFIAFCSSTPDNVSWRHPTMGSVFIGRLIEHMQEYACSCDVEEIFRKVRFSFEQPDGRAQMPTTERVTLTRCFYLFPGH
# UniProt Q9HC52: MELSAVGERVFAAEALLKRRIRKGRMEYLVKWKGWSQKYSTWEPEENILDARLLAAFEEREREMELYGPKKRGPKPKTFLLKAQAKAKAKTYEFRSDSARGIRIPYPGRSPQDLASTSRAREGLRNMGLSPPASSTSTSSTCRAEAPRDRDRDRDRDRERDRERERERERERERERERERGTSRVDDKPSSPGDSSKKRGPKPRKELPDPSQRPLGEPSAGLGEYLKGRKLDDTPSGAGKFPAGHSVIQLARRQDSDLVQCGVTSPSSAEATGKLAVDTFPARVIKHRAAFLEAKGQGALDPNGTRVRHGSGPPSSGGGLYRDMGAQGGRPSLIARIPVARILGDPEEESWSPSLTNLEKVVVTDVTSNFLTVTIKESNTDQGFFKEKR
# UniProt Q5T0F9: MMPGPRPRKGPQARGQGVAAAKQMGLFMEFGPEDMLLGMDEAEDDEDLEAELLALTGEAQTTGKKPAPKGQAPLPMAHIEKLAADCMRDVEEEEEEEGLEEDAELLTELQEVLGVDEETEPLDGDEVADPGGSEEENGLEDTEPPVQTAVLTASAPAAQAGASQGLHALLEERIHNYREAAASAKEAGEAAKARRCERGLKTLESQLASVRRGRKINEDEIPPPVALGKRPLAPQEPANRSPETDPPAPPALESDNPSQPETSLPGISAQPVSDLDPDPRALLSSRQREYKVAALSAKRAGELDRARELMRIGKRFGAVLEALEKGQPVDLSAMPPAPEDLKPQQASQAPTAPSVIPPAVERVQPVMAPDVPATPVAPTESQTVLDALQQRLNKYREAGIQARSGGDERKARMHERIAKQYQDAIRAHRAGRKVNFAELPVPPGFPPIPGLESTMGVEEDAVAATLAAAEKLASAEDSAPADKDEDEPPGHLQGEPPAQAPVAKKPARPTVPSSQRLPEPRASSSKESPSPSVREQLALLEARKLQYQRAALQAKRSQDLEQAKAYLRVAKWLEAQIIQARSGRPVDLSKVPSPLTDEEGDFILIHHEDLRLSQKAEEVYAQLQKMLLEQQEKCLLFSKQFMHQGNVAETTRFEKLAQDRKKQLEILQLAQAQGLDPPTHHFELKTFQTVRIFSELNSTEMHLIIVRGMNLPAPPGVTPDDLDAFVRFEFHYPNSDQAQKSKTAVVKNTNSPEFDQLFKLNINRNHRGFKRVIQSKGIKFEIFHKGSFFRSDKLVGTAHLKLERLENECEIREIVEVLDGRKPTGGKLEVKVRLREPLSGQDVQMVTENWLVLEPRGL
# UniProt P55210: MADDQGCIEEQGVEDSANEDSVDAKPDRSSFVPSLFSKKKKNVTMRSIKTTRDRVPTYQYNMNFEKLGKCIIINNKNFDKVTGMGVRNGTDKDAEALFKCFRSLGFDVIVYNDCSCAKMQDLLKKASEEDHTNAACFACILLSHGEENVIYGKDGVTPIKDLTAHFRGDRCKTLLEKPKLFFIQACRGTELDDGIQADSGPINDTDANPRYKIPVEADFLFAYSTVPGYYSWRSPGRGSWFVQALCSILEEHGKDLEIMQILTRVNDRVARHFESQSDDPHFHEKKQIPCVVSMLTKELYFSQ
# UniProt Q4VC31: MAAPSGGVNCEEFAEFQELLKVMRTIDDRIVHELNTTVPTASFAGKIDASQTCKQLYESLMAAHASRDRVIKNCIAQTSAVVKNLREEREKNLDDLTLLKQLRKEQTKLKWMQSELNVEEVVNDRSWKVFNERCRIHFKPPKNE
# UniProt P49368: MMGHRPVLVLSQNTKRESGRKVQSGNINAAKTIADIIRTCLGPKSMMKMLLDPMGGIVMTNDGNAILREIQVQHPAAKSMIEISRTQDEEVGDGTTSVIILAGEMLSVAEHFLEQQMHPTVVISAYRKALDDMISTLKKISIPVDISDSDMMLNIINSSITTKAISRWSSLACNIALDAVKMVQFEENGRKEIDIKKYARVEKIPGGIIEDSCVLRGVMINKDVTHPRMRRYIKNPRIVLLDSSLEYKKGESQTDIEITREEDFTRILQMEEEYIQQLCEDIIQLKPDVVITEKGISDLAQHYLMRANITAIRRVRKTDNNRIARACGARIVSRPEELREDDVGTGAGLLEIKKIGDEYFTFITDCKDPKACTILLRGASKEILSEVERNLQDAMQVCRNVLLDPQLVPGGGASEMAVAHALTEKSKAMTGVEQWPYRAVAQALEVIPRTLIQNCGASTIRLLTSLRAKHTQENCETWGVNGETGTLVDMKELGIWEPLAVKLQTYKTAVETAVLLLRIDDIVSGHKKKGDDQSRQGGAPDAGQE
# UniProt Q01518, whole entry, looked up: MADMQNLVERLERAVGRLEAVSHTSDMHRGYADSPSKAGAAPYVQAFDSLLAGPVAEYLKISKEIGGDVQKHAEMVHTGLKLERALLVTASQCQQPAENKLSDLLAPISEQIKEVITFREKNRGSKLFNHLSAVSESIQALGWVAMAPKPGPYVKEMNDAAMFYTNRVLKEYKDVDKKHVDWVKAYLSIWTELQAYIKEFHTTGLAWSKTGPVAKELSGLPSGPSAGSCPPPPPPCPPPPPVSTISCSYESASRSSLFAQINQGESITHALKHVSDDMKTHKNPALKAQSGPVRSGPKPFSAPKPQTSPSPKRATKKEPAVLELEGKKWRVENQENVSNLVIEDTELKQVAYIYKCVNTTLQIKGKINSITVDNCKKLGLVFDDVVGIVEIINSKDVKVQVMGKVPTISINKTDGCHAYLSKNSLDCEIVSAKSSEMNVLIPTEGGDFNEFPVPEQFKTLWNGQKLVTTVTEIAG
# UniProt P16152: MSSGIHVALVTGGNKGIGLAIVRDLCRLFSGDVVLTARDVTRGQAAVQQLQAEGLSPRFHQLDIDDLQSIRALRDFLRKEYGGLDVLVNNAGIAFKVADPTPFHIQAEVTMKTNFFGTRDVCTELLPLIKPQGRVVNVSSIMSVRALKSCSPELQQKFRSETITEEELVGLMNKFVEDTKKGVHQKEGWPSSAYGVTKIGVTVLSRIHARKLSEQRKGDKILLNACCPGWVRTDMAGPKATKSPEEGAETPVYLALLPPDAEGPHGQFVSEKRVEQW
# UniProt P42574: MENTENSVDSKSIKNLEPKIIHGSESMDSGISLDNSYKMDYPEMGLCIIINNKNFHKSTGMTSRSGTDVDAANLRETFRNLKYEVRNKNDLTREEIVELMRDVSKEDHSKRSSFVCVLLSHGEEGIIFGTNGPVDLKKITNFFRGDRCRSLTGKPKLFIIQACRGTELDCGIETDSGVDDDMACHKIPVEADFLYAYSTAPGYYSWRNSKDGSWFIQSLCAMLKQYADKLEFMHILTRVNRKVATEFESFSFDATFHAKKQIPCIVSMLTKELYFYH
# UniProt Q8N163, whole entry, looked up: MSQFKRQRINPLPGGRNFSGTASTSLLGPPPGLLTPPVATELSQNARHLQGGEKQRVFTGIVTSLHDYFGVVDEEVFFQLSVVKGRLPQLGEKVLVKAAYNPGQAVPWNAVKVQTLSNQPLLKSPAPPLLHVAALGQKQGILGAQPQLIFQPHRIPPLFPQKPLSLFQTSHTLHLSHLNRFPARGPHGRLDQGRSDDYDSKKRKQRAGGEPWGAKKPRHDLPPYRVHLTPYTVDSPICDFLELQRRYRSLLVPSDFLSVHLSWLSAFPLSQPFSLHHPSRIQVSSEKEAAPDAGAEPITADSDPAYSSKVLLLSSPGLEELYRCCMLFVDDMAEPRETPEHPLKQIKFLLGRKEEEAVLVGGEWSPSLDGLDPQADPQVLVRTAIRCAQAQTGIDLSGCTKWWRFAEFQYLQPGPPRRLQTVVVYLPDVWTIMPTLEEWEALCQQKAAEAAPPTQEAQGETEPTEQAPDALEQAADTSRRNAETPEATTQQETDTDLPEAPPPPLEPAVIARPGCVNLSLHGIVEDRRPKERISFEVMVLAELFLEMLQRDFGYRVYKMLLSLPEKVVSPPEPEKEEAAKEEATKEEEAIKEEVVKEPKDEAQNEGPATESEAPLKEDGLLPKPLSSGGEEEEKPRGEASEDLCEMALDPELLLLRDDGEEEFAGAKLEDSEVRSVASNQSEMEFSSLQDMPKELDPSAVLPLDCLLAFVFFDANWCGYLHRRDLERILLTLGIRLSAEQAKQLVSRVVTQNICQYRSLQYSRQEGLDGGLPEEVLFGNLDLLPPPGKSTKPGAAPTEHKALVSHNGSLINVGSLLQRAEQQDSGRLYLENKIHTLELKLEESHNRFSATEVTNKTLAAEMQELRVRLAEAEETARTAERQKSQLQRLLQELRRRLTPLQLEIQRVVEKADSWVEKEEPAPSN
# UniProt O75828: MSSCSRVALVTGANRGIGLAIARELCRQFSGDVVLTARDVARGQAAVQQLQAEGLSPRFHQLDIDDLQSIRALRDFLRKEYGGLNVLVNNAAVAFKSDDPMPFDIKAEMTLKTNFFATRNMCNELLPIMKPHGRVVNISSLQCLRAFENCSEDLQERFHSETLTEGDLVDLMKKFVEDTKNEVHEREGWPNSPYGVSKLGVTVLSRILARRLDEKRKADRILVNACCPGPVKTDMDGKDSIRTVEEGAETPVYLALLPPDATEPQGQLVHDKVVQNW
# UniProt Q96S94: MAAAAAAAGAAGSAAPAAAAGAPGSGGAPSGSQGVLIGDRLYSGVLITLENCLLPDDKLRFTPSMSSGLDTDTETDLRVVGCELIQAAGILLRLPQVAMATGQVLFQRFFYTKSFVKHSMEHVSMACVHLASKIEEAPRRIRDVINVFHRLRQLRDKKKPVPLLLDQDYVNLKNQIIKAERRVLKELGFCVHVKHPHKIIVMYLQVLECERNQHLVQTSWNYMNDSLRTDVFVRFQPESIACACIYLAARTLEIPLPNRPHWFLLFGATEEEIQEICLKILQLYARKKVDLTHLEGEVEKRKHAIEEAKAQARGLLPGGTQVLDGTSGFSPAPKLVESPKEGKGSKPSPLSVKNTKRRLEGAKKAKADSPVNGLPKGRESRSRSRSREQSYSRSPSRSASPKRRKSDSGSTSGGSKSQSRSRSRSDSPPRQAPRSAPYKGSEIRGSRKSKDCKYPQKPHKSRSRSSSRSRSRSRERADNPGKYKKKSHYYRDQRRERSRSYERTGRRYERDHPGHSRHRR
# UniProt Q75N03: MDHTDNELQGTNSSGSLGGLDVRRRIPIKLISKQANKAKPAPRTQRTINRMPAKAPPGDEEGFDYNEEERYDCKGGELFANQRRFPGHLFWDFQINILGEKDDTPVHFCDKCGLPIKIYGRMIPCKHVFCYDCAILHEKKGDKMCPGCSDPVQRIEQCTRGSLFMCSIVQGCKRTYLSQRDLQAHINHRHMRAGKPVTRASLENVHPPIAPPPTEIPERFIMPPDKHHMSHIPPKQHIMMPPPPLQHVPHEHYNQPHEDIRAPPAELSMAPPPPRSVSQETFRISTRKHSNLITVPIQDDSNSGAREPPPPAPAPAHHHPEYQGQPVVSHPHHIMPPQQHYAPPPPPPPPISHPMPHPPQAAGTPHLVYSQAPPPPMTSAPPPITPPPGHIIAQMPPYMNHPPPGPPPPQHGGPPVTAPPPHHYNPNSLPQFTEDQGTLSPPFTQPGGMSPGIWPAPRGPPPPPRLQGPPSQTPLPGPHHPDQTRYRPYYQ
# UniProt Q8IWD4: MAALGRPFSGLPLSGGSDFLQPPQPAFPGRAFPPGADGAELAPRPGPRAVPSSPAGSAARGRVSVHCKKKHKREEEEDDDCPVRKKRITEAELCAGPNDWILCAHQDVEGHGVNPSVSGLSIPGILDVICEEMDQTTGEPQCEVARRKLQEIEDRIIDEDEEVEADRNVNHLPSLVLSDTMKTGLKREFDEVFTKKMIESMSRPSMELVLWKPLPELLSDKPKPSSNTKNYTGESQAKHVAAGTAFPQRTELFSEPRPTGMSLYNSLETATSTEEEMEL
# This is one part of the list.
# Compound: CC1Cc2ccccc2N1C(=O)C1CCCN(C1)C(=O)CCl (mixture of isomers) [TRIM25 ligand 11 (diastereomer mixture)]
# Test: probe-labelled cysteine peptide fold change vs DMSO (competition) (log2 fold change); higher = less target engagement (more negative = stronger competition)
# Details: 10 µM; THP-1; incubation time: 4 h
# 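Further: competitive chemoproteomic profiling in live THP-1 cells with an iodoacetamide desthiobiotin (IA-DTB) probe, comparing probe-labelled peptide intensities in compound-treated cells against DMSO-treated controls.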
row,Target,probe-labelled cysteine peptide fold change
1,CCDC86_Q9H6F5_127_CSQDQGVLASELAQNK (UniProt Q9H6F5),0.209
2,CASP1_P29466_362_LIEHMQEYACSCDVEEIFR (UniProt P29466),0.023
3,CBX8_Q9HC52_261_RQDSDLVQCGVTSPSSAEATGK (UniProt Q9HC52),0.151
4,CC2D1B_Q5T0F9_809_LENECEIREIVEVLDGR (UniProt Q5T0F9),-0.0987
5,CASP7_P55210_186_LFFIQACR (UniProt P55210),-0.143
6,CASP7_P55210_139_ASEEDHTNAACFACILLSHGEENVIYGK (UniProt P55210),0.0627
7,CAPZA2_P47755_111_EATDPRPCEVENAVESWR (UniProt P47755),0.0298
8,CCDC58_Q4VC31_10_AAPSGGVNCEEFAEFQELLK (UniProt Q4VC31),-0.0916
9,CCS_O14618_113_CLIEGTIDGLEPGLHGLHVHQYGDLTNNCNSCGNHFNPDGASHGGPQDSDR (UniProt O14618),-0.0799
10,CAPN7_Q9Y6W3_242_FAYPMPFCDR (UniProt Q9Y6W3),-0.0509
11,CCT3_P49368_475_HTQENCETWGVNGETGTLVDMK (UniProt P49368),0.016
12,CCNH_P51946_244_TCLSQLLDIMK (UniProt P51946),0.203
13,CAP1_Q01518_416_VQVMGKVPTISINKTDGCHAYLSK (UniProt Q01518),-0.472
14,CBR1_P16152_226+227_ILLNACCPGWVR (UniProt P16152),-0.0256
15,CASP3_P42574_47_MDYPEMGLCIIINNK (UniProt P42574),-0.153
16,CCAR2_Q8N163_515_PGCVNLSLHGIVEDR (UniProt Q8N163),0.284
17,CCT3_P49368_213_IPGGIIEDSCVLR (UniProt P49368),-0.0222
18,CBR3_O75828_227_ILVNACCPGPVK (UniProt O75828),0.0945
19,CAT_P04040_377_LGPNYLHIPVNCPYR (UniProt P04040),0.00564
20,CCNDBP1_O95273_89_FCEQVHAAIK (UniProt O95273),0.0786
21,CASP4_P49662_337_YSWCCHLEEVFRK (UniProt P49662),0.136

# Same assay, conditions: 50 µM; THP-1; incubation time: 4 h
row,Target,probe-labelled cysteine peptide fold change
1,CASP8_Q14790_312+313_IYQLMDHSNMDCFICCILSHGDK (UniProt Q14790),-0.154
2,CCNL2_Q96S94_190_ELGFCVHVK (UniProt Q96S94),0.365
3,CAP1_Q01518_375_INSITVDNCK (UniProt Q01518),0.144
4,CAPNS1_P04632_144_TDGFGIDTCR (UniProt P04632),0.074
5,CBLL1_Q75N03_133_HVFCYDCAILHEK (UniProt Q75N03),0.0558
6,CBR1_P16152_150_SCSPELQQK (UniProt P16152),-0.0901
7,CAPZA2_P47755_141_EHYPNGVCTVYGK (UniProt P47755),0.0619
8,CASP3_P42574_184_GTELDCGIETDSGVDDDMACHK (UniProt P42574),-0.179
9,CASP3_P42574_116_RSSFVCVLLSHGEEGIIFGTNGPVDLKK (UniProt P42574),0.0265
10,CCT3_P49368_173_WSSLACNIALDAVK (UniProt P49368),0.159
11,CCDC97_Q96F63_218_TPTHQPPKPGSPGRPACPLSNLLLQSYEER (UniProt Q96F63),-0.0986
12,CCDC117_Q8IWD4_81_EEEEDDDCPVR (UniProt Q8IWD4),-0.323
13,CASP2_P42575_173+179_DGPVCLQVKPCTPEFYQTHFQLAYR (UniProt P42575),-0.22
14,CARS_P49589_389_FPHHDNELAQSEAYFENDCWVR (UniProt P49589),0.184
15,CC2D1A_Q6P1N0_765_LDALEIACEVR (UniProt Q6P1N0),0.225
16,CCNA2_P20248_390_KTGYTLESLKPCLMDLHQTYLK (UniProt P20248),-0.296
17,CCDC86_Q9H6F5_127_CSQDQGVLASELAQNK (UniProt Q9H6F5),0.098
18,CASP1_P29466_362_LIEHMQEYACSCDVEEIFR (UniProt P29466),0.0533
19,CBX8_Q9HC52_261_RQDSDLVQCGVTSPSSAEATGK (UniProt Q9HC52),-0.171
20,CC2D1B_Q5T0F9_809_LENECEIREIVEVLDGR (UniProt Q5T0F9),0.0697
21,CASP7_P55210_186_LFFIQACR (UniProt P55210),-0.112
22,CASP7_P55210_139_ASEEDHTNAACFACILLSHGEENVIYGK (UniProt P55210),0.151
